# Results taken from PubChem BioAssay AID720504 (National Center for Advancing Translational Sciences (NCATS), 2013).
# By UniProt entry, the sequences of proteins in these tests, tags left out.
# UniProt P53350, whole entry, looked up: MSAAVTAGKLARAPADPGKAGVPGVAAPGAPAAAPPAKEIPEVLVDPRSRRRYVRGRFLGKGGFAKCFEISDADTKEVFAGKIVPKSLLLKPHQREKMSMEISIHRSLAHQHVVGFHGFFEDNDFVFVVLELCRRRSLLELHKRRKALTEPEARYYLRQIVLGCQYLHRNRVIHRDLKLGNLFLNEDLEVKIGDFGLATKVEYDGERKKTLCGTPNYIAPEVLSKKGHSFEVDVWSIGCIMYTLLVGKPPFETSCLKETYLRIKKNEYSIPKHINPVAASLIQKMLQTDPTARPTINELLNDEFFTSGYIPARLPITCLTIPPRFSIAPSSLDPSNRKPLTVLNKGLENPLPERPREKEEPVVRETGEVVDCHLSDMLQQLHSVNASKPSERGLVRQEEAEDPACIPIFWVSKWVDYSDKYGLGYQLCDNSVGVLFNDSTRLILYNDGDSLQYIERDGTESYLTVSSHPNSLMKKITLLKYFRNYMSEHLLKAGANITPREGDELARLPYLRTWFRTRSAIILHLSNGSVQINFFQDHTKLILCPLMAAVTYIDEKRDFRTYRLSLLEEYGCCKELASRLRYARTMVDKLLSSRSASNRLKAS
# The whole screen tested about 360,000 compounds, of which about 10,000 (2.8%) were called active. The inconclusive results got no clear call from the source; some entries with a clear call stand among them for comparison. Calls follow the shape of the dose curve; as a rule, active = well fitted inhibition curve with a large enough effect; inconclusive = small, poorly fitted or top-dose-only effect; inactive = flat fitted curve, though single readings scatter. Where the call is inconclusive, the potency comes from a doubtful curve fit.
# Molecular target: Serine/threonine-protein kinase PLK1 (Homo sapiens) (UniProt P53350)
# Test: qHTS for Inhibitors of PLK1-PDB (polo-like kinase 1 - polo-box domain): Primary Screen; also: nearly all actives have a fitted effect of over 65% in size; as to max response, negative = inhibition: series mostly up to about 57 µM
# Settings: Plk1 PBD binding of FITC phosphopeptide, fluorescence polarization
# % is scaled to controls: 0 for no effect and ±100 for the full control effect; potency is read from the fitted curve at half-maximal effect.
SMILES,Potency,"max response, negative = inhibition"
CCOC(=O)c1c(NC(=S)Nc2ccccc2)sc2c1CCN(CC)C2,"inconclusive: 5.32 µM [inhibitor, full curve]",–
CCOC(=O)c1c(NC(=O)Cc2ccccc2)sc2c1CC(C)(C)NC2(C)C,–,inactive: 1.08%
Fc1cc(F)cc(NC(=S)NCCCN2CCOCC2)c1,"inconclusive: 13.4 µM [inhibitor, partial curve]",–
O=C(CCc1nc(-c2ccccc2)no1)NCC1CCCO1 (centres undefined),"inconclusive: 26.7 µM [inhibitor, partial curve]",–
COc1ccc(N2C(=O)c3ccccc3S2(=O)=O)cc1,–,inactive: -14.9%
COc1cc(/C=N/NS(=O)(=O)c2ccc(C)cc2)ccc1OCc1cccc(C(=O)O)c1,–,inactive: -16.6%
O=C(CCN1CCCCCC1)c1ccccc1,"inconclusive: 15 µM [inhibitor, partial curve]",–
COC(=O)c1ccccc1-c1c2ccc(=N)cc-2oc2cc(N)ccc12,"inconclusive: 0.0095 µM [inhibitor, full curve, poor fit]",–
CC(=O)Nc1ccc(N=NC2C(=O)N(C(N)=S)N=C2C)cc1 (centres undefined),"inconclusive: 29.9 µM [inhibitor, single point]",–
CCOc1cc(/C=N/NC(=O)c2cccnc2)ccc1OCC(N)=O,–,inactive: -14.3%
CCCc1nnc(NC(=O)CN2C(=O)c3ccccc3C2=O)s1,–,inactive: -10.8%
Cc1nn2c(N3CCOCC3)c3c(nc2c1-c1ccccc1)CCCC3,–,inactive: 0.489%
COc1cc(C)c(C)cc1S(=O)(=O)n1c(C)nc2ccccc21,active: 26.7 µM,–
COCCN1Cc2cc3cc(C)ccc3nc2SC1=Nc1ccc(OC)cc1,–,inactive: -1.25%
Cn1cc(SCC(=O)NCc2ccc(F)cc2)c2ccccc21,"inconclusive: 23.8 µM [inhibitor, single point]",–
CCCn1c2ccccc2c2cnn(CC(=O)NC3CCN(Cc4ccccc4)CC3)c(=O)c21,"inconclusive: 18.9 µM [inhibitor, partial curve]",–
Cc1cccc2sc(NC(=O)C3CCN(S(=O)(=O)c4cc([N+](=O)[O-])ccc4Cl)CC3)nc12,–,inconclusive: -30.3% [inhibitor]
CCCn1cc2c(c1-c1ccc(C)cc1)c(=O)n(C)c(=O)n2C,–,inactive: -9.63%
CCC(=O)Nc1nc(C)c(-c2csc(Nc3cccc(O)c3)n2)s1,"inconclusive: 33.6 µM [inhibitor, single point]",–
CCc1nn(C(CC)C(=O)NCc2cccc(OC)c2)c(=O)c2cc3occc3n12 (centres undefined),"inconclusive: 23.8 µM [inhibitor, partial curve]",–
Cc1ccc(OCC(=O)N/N=C\c2cn(Cc3ccccc3)c3ccccc23)cc1C,"inconclusive: 37.7 µM [inhibitor, single point]",–
O=C(CN1C(=O)S/C(=C\c2cccs2)C1=O)Nc1ccc(O)cc1C(=O)O,active: 23.8 µM,–

SMILES,Potency,"max response, negative = inhibition"
O=S(=O)(Oc1ccccc1C(=S)N1CCOCC1)c1ccc(Cl)cc1,"inconclusive: 21.2 µM [inhibitor, partial curve]",–
O=C(CCCCC(=O)Sc1ccccc1)Sc1ccccc1,"inconclusive: 11.9 µM [inhibitor, partial curve]",–
C=CCNC(=O)CCCOc1ccc(C)cc1,"inconclusive: 26.7 µM [inhibitor, partial curve]",–
O=[N+]([O-])c1ccc(S(=O)(=O)N2CCN=C2SCc2cccnc2)cc1,"inconclusive: 33.6 µM [inhibitor, partial curve]",–
CSc1ccc(/C=C2\C(=N)N3N=C(CC(=O)N4CCCCC4)SC3=NC2=O)cc1,"inconclusive: 33.6 µM [inhibitor, single point]",–
Cn1c(SCC(=O)Nc2ccc3nc(SCC(=O)N4CCCC4)sc3c2)nnc1-c1ccc(N)cc1,"inconclusive: 18.9 µM [inhibitor, partial curve]",–
O=C(NN(C(=O)C1CC1)c1nc2ccccc2s1)C1CC1,active: 26.7 µM,–
COc1cc(/C=C/C(=O)OCC(=O)NCc2ccco2)ccc1OCC#N,"inconclusive: 16.8 µM [inhibitor, partial curve]",–
O=C(CN(CC(=O)N1CCOCC1)S(=O)(=O)c1ccc(Br)s1)N1CCOCC1,active: 23.8 µM,–
COc1ccc(OC)c(-c2[nH]nc3c2C(c2ccco2)C(C#N)=C(N)O3)c1 (centres undefined),"inconclusive: 26.7 µM [inhibitor, single point]",–
Cc1ccc(CNC(=O)C(NS(=O)(=O)c2cccs2)C(C)C)cc1 (centres undefined),"inconclusive: 37.7 µM [inhibitor, single point]",–
Cc1cc(N2C(=O)C(O)=C(C(=O)c3cc4ccccc4o3)C2c2ccc([N+](=O)[O-])cc2)no1 (centres undefined),active: 37.7 µM,–
CCOC(=O)c1[nH]c(C)c(C)c1C,"inconclusive: 29.9 µM [inhibitor, partial curve]",–
C=C(C)C(=O)Nc1cccc(C2=NOC3(C2)C[C@H](C(N)=O)N(C(=O)c2ccccc2C(=O)c2ccccc2)C3)c1 (some centres undefined),"inconclusive: 21.2 µM [inhibitor, partial curve]",–
O=C(CCN1CCN(c2ccccc2)CC1)c1ccc(Cl)cc1,"inconclusive: 10.6 µM [inhibitor, partial curve]",–
CCOC(=O)/C=C/C(=O)OCC(=O)Nc1ccc(OC)c(Cl)c1,"inconclusive: 29.9 µM [inhibitor, single point]",–
O=[N+]([O-])c1ccc(S(=O)(=O)Nc2nc(-c3ccccc3)cs2)cc1,"inconclusive: 23.8 µM [inhibitor, partial curve]",–
Cc1ccc(Sc2ncnc3onc(C)c23)cc1,active: 18.9 µM,–
NS(=O)(=O)c1ccc(NC(=O)/C=C/c2ccco2)cc1,"inconclusive: 21.2 µM [inhibitor, partial curve]",–
FC(F)(F)c1cc(N2CCOCC2)nc(-c2ccccc2)n1,active: 26.7 µM,–
Cc1sc(NC(=O)C2C3C=CC(C3)C2C(=O)O)c(C(N)=O)c1-c1ccc(C(C)C)cc1 (centres undefined),"inconclusive: 15 µM [inhibitor, partial curve]",–
Cc1ccc2cc(CN(C(=O)c3ccco3)c3cccc(C)c3C)c(=O)[nH]c2c1,"inconclusive: 26.7 µM [inhibitor, partial curve]",–

# Laid out differently: eleven of the compounds above.
SMILES | Potency | max response, negative = inhibition
O=C(CN(CC(=O)N1CCOCC1)S(=O)(=O)c1ccc(Br)s1)N1CCOCC1 | active: 23.8 µM | –
COc1ccc(OC)c(-c2[nH]nc3c2C(c2ccco2)C(C#N)=C(N)O3)c1 (centres undefined) | inconclusive: 26.7 µM [inhibitor, single point] | –
Cc1ccc(CNC(=O)C(NS(=O)(=O)c2cccs2)C(C)C)cc1 (centres undefined) | inconclusive: 37.7 µM [inhibitor, single point] | –
Cc1cc(N2C(=O)C(O)=C(C(=O)c3cc4ccccc4o3)C2c2ccc([N+](=O)[O-])cc2)no1 (centres undefined) | active: 37.7 µM | –
CCOC(=O)c1[nH]c(C)c(C)c1C | inconclusive: 29.9 µM [inhibitor, partial curve] | –
C=C(C)C(=O)Nc1cccc(C2=NOC3(C2)C[C@H](C(N)=O)N(C(=O)c2ccccc2C(=O)c2ccccc2)C3)c1 (some centres undefined) | inconclusive: 21.2 µM [inhibitor, partial curve] | –
O=C(CCN1CCN(c2ccccc2)CC1)c1ccc(Cl)cc1 | inconclusive: 10.6 µM [inhibitor, partial curve] | –
CCOC(=O)/C=C/C(=O)OCC(=O)Nc1ccc(OC)c(Cl)c1 | inconclusive: 29.9 µM [inhibitor, single point] | –
O=[N+]([O-])c1ccc(S(=O)(=O)Nc2nc(-c3ccccc3)cs2)cc1 | inconclusive: 23.8 µM [inhibitor, partial curve] | –
Cc1ccc(Sc2ncnc3onc(C)c23)cc1 | active: 18.9 µM | –
NS(=O)(=O)c1ccc(NC(=O)/C=C/c2ccco2)cc1 | inconclusive: 21.2 µM [inhibitor, partial curve] | –
